In this test the target is fused protein of GST and the ligand-binding domain of ERα (UniProt P03372). Put plainly: GST pull-down on glutathione sepharose beads fixed with GST-ERα ligand-binding domain, SDS-PAGE, MALDI-TOF fingerprint.

Amino acid sequences for entries named in this document (tags omitted). A change or cut given only in a name is not applied to a line headed by its entry. Residues count along the entry.
UniProt P03372, residues 251-595: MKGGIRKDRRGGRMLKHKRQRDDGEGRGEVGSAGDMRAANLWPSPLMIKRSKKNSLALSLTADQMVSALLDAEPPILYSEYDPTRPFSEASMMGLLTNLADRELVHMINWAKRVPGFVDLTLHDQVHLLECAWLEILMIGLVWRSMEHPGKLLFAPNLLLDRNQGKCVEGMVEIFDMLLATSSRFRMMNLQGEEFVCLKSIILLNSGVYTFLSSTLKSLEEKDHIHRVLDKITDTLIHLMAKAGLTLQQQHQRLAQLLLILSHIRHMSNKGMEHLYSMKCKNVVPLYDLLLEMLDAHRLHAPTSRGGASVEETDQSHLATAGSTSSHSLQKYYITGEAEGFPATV
UniProt P11142: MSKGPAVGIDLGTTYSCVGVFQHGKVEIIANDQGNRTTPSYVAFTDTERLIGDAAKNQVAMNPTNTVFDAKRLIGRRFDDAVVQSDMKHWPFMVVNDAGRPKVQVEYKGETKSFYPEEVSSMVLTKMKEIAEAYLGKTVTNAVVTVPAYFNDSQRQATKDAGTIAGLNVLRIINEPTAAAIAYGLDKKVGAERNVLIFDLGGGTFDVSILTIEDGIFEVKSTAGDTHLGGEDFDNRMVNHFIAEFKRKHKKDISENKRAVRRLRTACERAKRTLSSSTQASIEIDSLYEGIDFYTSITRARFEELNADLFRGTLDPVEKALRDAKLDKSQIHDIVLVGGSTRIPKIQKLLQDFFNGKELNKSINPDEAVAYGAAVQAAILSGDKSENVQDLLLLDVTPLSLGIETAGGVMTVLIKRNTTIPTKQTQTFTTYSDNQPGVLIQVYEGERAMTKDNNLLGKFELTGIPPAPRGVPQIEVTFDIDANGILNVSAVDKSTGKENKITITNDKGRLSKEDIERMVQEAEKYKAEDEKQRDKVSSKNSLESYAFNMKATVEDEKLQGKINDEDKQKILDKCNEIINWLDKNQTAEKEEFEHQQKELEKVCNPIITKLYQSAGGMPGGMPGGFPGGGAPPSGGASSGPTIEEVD

These are yes or no findings as the source states them, for the method shown. In cells and extracts the contact can be indirect. Some results given as binding are weak or reduced against the parent protein; the word gives no strength.

This is an account of results in patent US20050186587A1, “Method for screening a substance which can suppress degradation of a nuclear receptor or a substance which can promote degradation of a nuclear receptor” (Interite, Inc., priority 2004, published 2005).

As for “Hsc70 (heat shock protein isolated from HeLa cell raw nucleus extract) (from UniProt P11142 2-646)”, the binding entry was “binds”.
